The nature of the series: Organic light emitting device with the compound as light emitting dopant: driving voltage and efficiency. The note with it: current density of 10 mA/cm^2; for Driving Voltage: compound as dopant of light emitting layer (8% concentration, host Compound B); for Current Efficiency / Light Emission Wavelength / Power Efficiency: compound as dopant of light emitting layer.

Consider `c1ccc([Si](c2ccccc2)(c2ccccc2)c2cccc(-c3ccccc3N(c3cccc([Si](c4ccccc4)(c4ccccc4)c4ccccc4)c3)c3cc4c5ccccc5c(N(c5cccc([Si](c6ccccc6)(c6ccccc6)c6ccccc6)c5)c5ccccc5-c5cccc([Si](c6ccccc6)(c6ccccc6)c6ccccc6)c5)cc4c4ccccc34)c2)cc1` [BD12], for which the “Driving Voltage” value turned out to be 4.37 V, the “Current Efficiency” value was found to be 4.21 cd/A, the “Light Emission Wavelength” value was found to be 450 nm and the “Power Efficiency” value is listed as 2.75 lm/W.
For `c1ccc([Si](c2ccccc2)(c2ccccc2)c2cccc(-c3ccccc3N(c3ccc(-c4cc5c6ccccc6c(-c6ccc(N(c7cccc([Si](c8ccccc8)(c8ccccc8)c8ccccc8)c7)c7ccccc7-c7cccc([Si](c8ccccc8)(c8ccccc8)c8ccccc8)c7)cc6)cc5c5ccccc45)cc3)c3cccc([Si](c4ccccc4)(c4ccccc4)c4ccccc4)c3)c2)cc1` [BD24], in that order: 5.5 V, 4.46 cd/A, 442 nm and 2.86 lm/W.
Take `CC(C)c1ccc([Si](c2ccc(C(C)C)cc2)(c2ccc(C(C)C)cc2)c2ccc(N(c3cccc(-c4cccc([Si](c5ccc(C(C)C)cc5)(c5ccc(C(C)C)cc5)c5ccc(C(C)C)cc5)c4)c3)c3cc4c5ccccc5c(N(c5ccc([Si](c6ccc(C(C)C)cc6)(c6ccc(C(C)C)cc6)c6ccc(C(C)C)cc6)cc5)c5cccc(-c6cccc([Si](c7ccc(C(C)C)cc7)(c7ccc(C(C)C)cc7)c7ccc(C(C)C)cc7)c6)c5)cc4c4ccccc34)cc2)cc1` [BD30]: the “Driving Voltage” value is reported as 4.26 V, the “Current Efficiency” value is given as 4.24 cd/A, the “Light Emission Wavelength” value is recorded as 451 nm and the “Power Efficiency” value is given as 2.77 lm/W.
As for `CC(C)c1ccc([Si](c2ccc(C(C)C)cc2)(c2ccc(C(C)C)cc2)c2ccc(N(c3ccc(-c4cc5c6ccccc6c(-c6ccc(N(c7ccc([Si](c8ccc(C(C)C)cc8)(c8ccc(C(C)C)cc8)c8ccc(C(C)C)cc8)cc7)c7cccc(-c8cccc([Si](c9ccc(C(C)C)cc9)(c9ccc(C(C)C)cc9)c9ccc(C(C)C)cc9)c8)c7)cc6)cc5c5ccccc45)cc3)c3cccc(-c4cccc([Si](c5ccc(C(C)C)cc5)(c5ccc(C(C)C)cc5)c5ccc(C(C)C)cc5)c4)c3)cc2)cc1` [BD38], the “Driving Voltage” value came to 5.43 V, the “Current Efficiency” value amounted to 4.56 cd/A, the “Light Emission Wavelength” value stood at 443 nm and the “Power Efficiency” value is recorded as 2.89 lm/W.
For `c1ccc(-c2ccc(N(c3ccccc3)c3cc4c5ccccc5c(N(c5ccccc5)c5ccc(-c6ccccc6)cc5)cc4c4ccccc34)cc2)cc1` [Compound C, reference compound], in that order: 6.23 V, 3.09 cd/A, 450 nm and 1.45 lm/W.

These data come from US11299503B2, “Compound, coating composition comprising the same, organic light emitting device using the same and method for manufacturing the same” (LG Chem, Ltd., priority 2018, dated 2022).
